This is one part of the list. These are further read-outs of the screen, such as a control signal, another cell line or another target. No call is given for them. Compounds called inactive in the main read-out are mostly missing here. Words in brackets tell the shape of the fitted curve; partial curves, single points and poor fits give uncertain potencies.
Assay: qHTS Assay for Lipid Storage Modulators in Drosophila S3 Cells;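 as to cell number change: cells counted by Cell Tracker Red CMTPX staining in the red channel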
Settings: BODIPY lipid droplet fluorescence, 18-24 h; for cell number change: measured here: cell count max response, cells fed with added oleic acid
Procedure, shortened: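 Drosophila S3 cells got compounds at several concentrations plus oleic acid (400 uM solution). Laser-scanning cytometry with 488 nm excitation read lipid droplets at 500-530 nm and cells at 575-640 nm. Percent activity was relative to 20 uM Triacsin C.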

[1] = measured here: lipid fluorescence (Fed channel) AC50, cells fed with added oleic acid
[2] = measured here: cell number channel AC50, cells fed with added oleic acid

Row | SMILES | cell number change [%] | AC50 [1] | AC50 [2]
1 | CCN(CC)C(=O)c1ccc(NC(=O)c2cccc(S(=O)(=O)N3CCN(Cc4ccccc4)CC3)c2)cc1 | 3.02 | 29.1 µM [rising, single point] | –
2 | Cc1c(C(=O)O)cccc1-n1c(C)cc(/C=C2\C(=O)NC(=O)N(c3ccc4c(c3)OCO4)C2=O)c1C | -30.8 | – | 32.6 µM [falling, single point]
3 | C#C[C@]1(O)CC[C@H]2[C@@H]3CCC4=Cc5nc6nc7ccccc7n6cc5C[C@]4(C)[C@H]3CC[C@@]21C | 4.02 | 0.517 µM [rising, full curve] | 0.517 µM [rising, full curve, poor fit]
4 | CCOP(=O)(OCC)c1nc(-c2cccc3ccccc23)oc1N1CCCCC1 | – | – | 29.1 µM [falling, single point]
5 | OC(CNC1CCCCCCC1)c1ccccc1 (centres undefined) | 19.7 | 4.61 µM [rising, single point] | 2.59 µM [rising, single point]
6 | Fc1ccc(N2CCN(Cc3cc4c(cc3Br)OCO4)CC2)cc1 | 7.09 | – | –
7 | O=c1[nH]c(=O)n(C2CCCCCC2)c(O)c1C=NCCCN1CCOCC1 | -13.6 | 29.1 µM [rising, single point] | 1.03 µM [rising, partial curve, poor fit]
8 | O=P(O)(O)C#Cc1ccccc1 | -16.1 | 29.1 µM [falling, single point] | –
9 | CCC(C)/C=C(C)/C=C/C1=CC2=C(Cl)C(=O)C(C)(OC(C)=O)C(=O)C2=CO1 (centres undefined) | -36.8 | 1.84 µM [falling, partial curve] | 23.1 µM [falling, partial curve, poor fit]
10 | CP(C)(=O)CCC(=O)O | -60.3 | 29.1 µM [falling, single point] | 29.1 µM [falling, single point]
11 | CC(C)(C)c1ccc(C(=O)C2CCCN(C3CCC3)C2)cc1 (centres undefined) | 4.06 | 0.146 µM [falling, full curve, poor fit] | 2.06 µM [falling, partial curve]
12 | CCC(=NCc1ccc(F)cc1)c1c(O)n(C)c(=O)n(C)c1=O | -25.8 | – | –
13 | COCCNC(=O)Cn1cc(/C=C2\C(=O)NC(=O)N(c3ccccc3F)C2=O)c2ccccc21 | 65.3 | – | 9.2 µM [rising, partial curve]
14 | COc1ccc(OCC(=O)N2CCN(Cc3nc4cc([N+](=O)[O-])ccc4n3C)CC2)cc1 | 41.3 | 0.731 µM [rising, single point] | 9.2 µM [rising, partial curve]
15 | Cc1cc(OCC(=O)Nc2c(C)n(C)n(-c3ccccc3)c2=O)c2c3c(c(=O)oc2c1)CCC3 | 15.8 | 0.291 µM [rising, full curve] | 0.231 µM [rising, full curve]
16 | C1CNC2NCCNC2N1 (centres undefined) | -0.799 | – | –
17 | CC(C)CN1CCN(Cc2ccc(C(F)(F)F)cc2)CC1CCO (centres undefined) | 33.2 | – | 29.1 µM [rising, single point]
18 | Cc1cc(NC(=O)CCl)nn1C | -24.2 | 20.6 µM [falling, single point] | –
19 | CC1CC2(O)c3no[n+]([O-])c3CCC2N1O (centres undefined) | 0.703 | 29.1 µM [falling, single point] | –
20 | Cn1cc(CCC(=O)N2CCC3(CC2)OCCO3)c2ccccc21 | -8.6 | 1.46 µM [falling, partial curve, poor fit] | 0.731 µM [falling, full curve, poor fit]
21 | Cc1ccc(-n2c(O)c(/C=N/Nc3ccccc3)c(=O)[nH]c2=O)cc1C | 4.1 | – | 0.58 µM [falling, full curve]
22 | CCOC(=O)C1=C(NC(=S)NC(=O)c2ccccc2)c2ccccc2CC12CCCC2 | -8.82 | 0.291 µM [falling, partial curve] | 0.231 µM [falling, full curve]
23 | CC1(C)OC1COc1c2occc2cc2ccc(=O)oc12 (centres undefined) | 18.7 | 0.326 µM [rising, full curve] | –
24 | Cc1cccc(-n2c(O)c(C=Nc3ccc(S(N)(=O)=O)cc3)c(=O)[nH]c2=O)c1 | – | 16.4 µM [falling, partial curve, poor fit] | –
25 | CC(C)(C#CCCCCC#CC(C)(C)[N+](C)(C)C)[N+](C)(C)C | -10.5 | 32.6 µM [falling, single point] | –
26 | CNP(=S)(NC)OCCOc1ccc(OC)cc1 | -28.6 | – | –
27 | COc1cccc(N2CCN(Cc3ccc(Cl)cc3)CC2)c1 | -39.1 | 9.2 µM [falling, partial curve, poor fit] | 3.26 µM [falling, partial curve, poor fit]

Entries of single compounds as entered above. Values in the order: cell number change [%]	AC50 [1]	AC50 [2]
Cc1c(C(=O)O)cccc1-n1c(C)cc(/C=C2\C(=O)NC(=O)N(c3ccc4c(c3)OCO4)C2=O)c1C is entered as -30.8	–	32.6 µM [falling, single point]
Cc1ccc(-n2c(O)c(/C=N/Nc3ccccc3)c(=O)[nH]c2=O)cc1C is entered as 4.1	–	0.58 µM [falling, full curve]
